In one experiment the test system is E. coli. As to the kind of experiment: Broth microdilution MIC, E. coli. Type of experiment: cell-based. The following applies: Escherichia coli, 24 h, read-out: MIC, Bacteria, E. coli. A digest of the protocol: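 Broth microdilution per CLSI M7-A7 in Mueller Hinton broth. About […] E. coli was exposed to serial test-compound dilutions for 24 h at 37°C. MIC was the lowest concentration suppressing visible growth. Ampicillin was used to monitor susceptibility.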
(In general: In broth dilution the organism is exposed to a series of concentrations in liquid medium.)

Experiment [1] deals with E. coli strains containing pET30a-eclrs. Nature of the experiment: MIC upon overexpression of EcLeuRS. Type of experiment: cell-based. The following applies: Escherichia coli, read-out: MIC when EcLeuRS was overexpressed. A digest of the protocol: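 E. coli transformants carrying pET30a-eclrs, with the empty pET30a vector strain as control. Both were induced with 10 μM IPTG and tested by broth microdilution in Mueller Hinton broth (37°C, 24 h). MICs were read as the lowest concentration without visible growth and compared between the two strains.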

In brackets after ≈: the same amount, converted by molar mass.

The MIC is the lowest concentration that inhibits growth of the organism. With `CC1(C)S[C@@H]2[C@H](NC(=O)[C@H](N)c3ccccc3)C(=O)N2[C@H]1C(=O)O` [Ampicillin, reference compound], the MIC (in the experiment on E. coli; in experiment [1]) was 4 mg/L (≈ 11.4 µM) in each case.

Values taken from publication PMC3747510 (Scientific Reports, 2013).
